{"sequences": {"note": "The chains behind the UniProt entries cited, without tags or fusion partners. Residues count along the entry.", "UniProt P04608": "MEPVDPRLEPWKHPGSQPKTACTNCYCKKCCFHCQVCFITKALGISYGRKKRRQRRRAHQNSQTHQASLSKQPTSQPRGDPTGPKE", "UniProt O15455, residues 24-904": "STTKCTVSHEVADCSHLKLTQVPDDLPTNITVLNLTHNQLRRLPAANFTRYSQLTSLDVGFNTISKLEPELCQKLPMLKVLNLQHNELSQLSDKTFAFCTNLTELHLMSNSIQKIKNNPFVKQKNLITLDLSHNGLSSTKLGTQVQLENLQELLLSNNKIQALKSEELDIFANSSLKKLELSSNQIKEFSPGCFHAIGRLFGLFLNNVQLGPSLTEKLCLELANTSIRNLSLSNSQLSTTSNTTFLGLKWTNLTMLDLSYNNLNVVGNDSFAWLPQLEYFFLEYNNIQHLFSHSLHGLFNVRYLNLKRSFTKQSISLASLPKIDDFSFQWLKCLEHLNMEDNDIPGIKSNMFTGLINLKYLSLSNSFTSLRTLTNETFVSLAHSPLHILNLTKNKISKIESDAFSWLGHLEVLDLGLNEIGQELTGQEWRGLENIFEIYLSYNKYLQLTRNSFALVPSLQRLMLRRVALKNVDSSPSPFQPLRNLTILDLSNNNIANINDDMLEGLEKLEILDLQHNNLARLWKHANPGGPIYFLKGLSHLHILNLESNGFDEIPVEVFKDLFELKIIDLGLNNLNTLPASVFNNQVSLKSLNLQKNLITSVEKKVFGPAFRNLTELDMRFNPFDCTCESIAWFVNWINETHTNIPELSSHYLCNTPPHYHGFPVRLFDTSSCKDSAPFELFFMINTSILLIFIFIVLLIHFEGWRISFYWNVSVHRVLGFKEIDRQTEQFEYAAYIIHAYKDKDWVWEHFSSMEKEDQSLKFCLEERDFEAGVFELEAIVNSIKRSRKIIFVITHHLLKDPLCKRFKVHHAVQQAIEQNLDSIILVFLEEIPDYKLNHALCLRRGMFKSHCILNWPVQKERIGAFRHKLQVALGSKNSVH"}, "source": "paper PMC12053450", "molecular_target": "biotinylated Tat HIV-1 IIIB (HIV-1 IIIB) (UniProt P04608)", "assay": "pull-down; 10 μg biotinylated Tat (IIIB) on streptavidin agarose resin as bait; precleared U87MG lysate (NP-40 buffer, 400 μl) incubated overnight at 4°C; eluate immunoblotted; non-biotinylated Tat as negative control; only the target purified", "note": "These are yes or no findings as the source states them, for the method shown. Binding seen in cells or lysates may run through a third protein."}
{"substance": "TLR3 (from UniProt O15455 24-904) (receptor)", "values": [{"measurement": "binding", "result": "no binding"}]}
